Values of other authors, collected in patent US6372783B1, “Enantiomeric compounds for treatment of cardiac arrhythmias and methods of use” (Aryx Therapeutics, priority 1999, dated 2002).

Settings: share of the time that pulmonary toxicity is fatal; cited from earlier work

## CCCCc1oc2ccccc2c1C(=O)c1cc(I)c(OCCN(CC)CC)c(I)c1 [Amiodarone]
  pulmonary toxicity, fatal: 10%
